Results deposited as PubChem BioAssay AID743121 (NCATS, 2013)
The whole screen tested about 26,000 reagents; shown is an unselected part. 167 of them (0.63%) count as active. 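Calls are per gene from RSA p-values that are not deposited; an individual active-marked siRNA can sensitise only weakly.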 A number with no mark means an inactive call. The numbers tell different reagents against one gene apart. No sequences are given here.

Purpose: 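Partners whose loss is lethal together with topoisomerase I blockade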 (primary screen)
Cell system: MDA-MB-231 cells, a human breast cancer line
Reagent: single siRNA against human genes, 20 nM siRNA (0.8 pmol per well)
Timing: 120 h (drug added 48 h after transfection, read 72 h later)
Conditions: camptothecin 20 nM (about EC30) for 72 h; vehicle 0.1% DMSO in parallel plates
Detection: 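Cell viability by ATP luminescence (CellTiter-Glo) as % of non-targeting siRNA wells, and the log2 ratio of viability without drug over viability with camptothecin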
Reading the numbers: log2 vehicle/camptothecin viability: higher = stronger sensitisation to camptothecin; viability with camptothecin and viability without drug: higher = more viable cells
Hit rule: 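Each gene scored by redundant siRNA activity (RSA) over its individual siRNA ratios; a gene is called active at p < 0.001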

no.	gene symbol	reagent no.	log2 vehicle/camptothecin viability	viability with camptothecin (% of control)	viability without drug (% of control)
1	CCNB2	1	-0.11	72.9	67.5
2	CCNB2	2	-0.0873	87.6	82.4
3	CCNB2	3	-0.0729	108	103
4	CCNB2	4	-0.46	90.5	65.8
5	GBA2	1	-0.252	114	95.9
6	GBA2	2	-0.394	77.5	59
7	GBA2	3	-0.143	49.9	45.2
8	GBA2	4	-0.318	81.9	65.7
9	TSPO	1	0.429	80.6	108
10	TSPO	2	-0.276	44.2	36.5
11	TSPO	3	0.582	18	26.9
12	GPT	1	-0.416	102	76.2
13	GPT	2	-0.435	67.5	49.9
14	GPT	3	-0.172	83.6	74.2
15	GPT	4	0.091	68.7	73.1
16	G3BP1	1	-0.17	106	93.9
17	G3BP1	2	-0.0124	60.1	59.6
18	G3BP1	3	-0.0721	95.5	90.8
19	RNF133	1	-0.0807	86.9	82.2
20	RNF133	2	-0.0567	83.1	79.9
21	RNF133	3	-0.198	53.3	46.4
22	RNF133	4	-0.673	99	62.1
23	TRIM17	1	0.147	83.7	92.8
24	TRIM17	2	-0.0327	94.7	92.6
25	TRIM17	3	-0.847	37	20.6
26	TRIM17	4	-0.35	84.9	66.6
27	IKBKE	1	-0.0269	90.4	88.8
28	IKBKE	2	0.222	37.8	44.1
29	IKBKE	3	-0.207	116	101
30	IKBKE	4	0.214	76.5	88.7
31	APLP2	1	-0.112	36.2	33.5
32	APLP2	2	0.0194	92.5	93.7
33	APLP2	3	0.451	54.4	74.4
34	JAK1	1	-0.106	71.1	66.1
35	JAK1	2	-0.396	65.4	49.7
36	JAK1	3	-0.193	62.1	54.3
37	JAK1	4	-0.259	79.9	66.8
38	GRB7	1	-0.606	104	68.2
39	GRB7	2	-0.415	52.4	39.3
40	GRB7	3	-0.253	84	70.5
41	PIK3R3	1	-0.111	105	97.5
42	PIK3R3	2	-0.217	73.9	63.6
43	PIK3R3	3	0.798	18.4	32
44	PIK3R3	4	-0.293	129	105
45	LRP1B	1	0.0847	66.5	70.5
46	LRP1B	2	-0.411	15.2	11.4
47	LRP1B	3	-0.192	102	89.1
48	LRP1B	4	-0.143	116	105
49	TEC	1	0.213	47.5	55
50	TEC	2	-0.488	85.2	60.7
51	TEC	3	-0.0999	36.6	34.1
52	TEC	4	0.359	59.5	76.3
53	TPH2	1	-0.244	54.1	45.7
54	TPH2	2	-0.133	34.9	31.9
55	TPH2	3	-0.454	69.6	50.8
56	TPH2	4	0.0525	91.7	95.1
57	CEP85	1	0.108	83.9	90.4
58	CEP85	2	-0.362	57.6	44.8
59	CEP85	3	-0.221	73.9	63.4
60	CEP85	4	-0.223	116	99.6
61	THRAP3	1	-0.214	80.6	69.5
62	THRAP3	2	-0.288	91.7	75.1
63	THRAP3	3	-0.304	99.7	80.8
64	GALK1	1	-0.529	95.9	66.4
65	GALK1	2	-0.491	90.6	64.5
66	GALK1	3	-0.467	89.4	64.7
67	GALK1	4	0.0329	57.8	59.1
68	CDC42	1	0.396	47.8	62.9
69	CDC42	2	-0.227	75.2	64.3
70	CDC42	3	-0.534	74.7	51.6
71	CDC42	4	0.119	91.8	99.7
72	CDC42	5	-0.03	93.4	91.4
73	CDC42	6	-0.26	53.3	44.5
74	CDC42	7	0.195	45	51.5
75	CDC42	8	0.12	65.3	71

No new results follow: 5 of the entries above.
no.	gene symbol	reagent no.	log2 vehicle/camptothecin viability	viability with camptothecin (% of control)	viability without drug (% of control)
28	IKBKE	2	0.222	37.8	44.1
29	IKBKE	3	-0.207	116	101
30	IKBKE	4	0.214	76.5	88.7
31	APLP2	1	-0.112	36.2	33.5
32	APLP2	2	0.0194	92.5	93.7
